Test results as given in article PMC9751883, “Discovery of new potent lysine specific histone demythelase-1 inhibitors (LSD-1) using structure based and ligand based molecular modelling and machine learning” (RSC Advances, 2022).

system: neuroblastoma SH-SY5Y cells; assay: MTT cell viability assay on SH-SY5Y cells; format: cell-based; conditions: SH-SY5Y dose-response, in presence of verapamil (10 μM)
Procedure: The anticancer effects of captured hits were evaluated against SH-SY5Y (Neuroblastoma, CRL-2266), Panc-1 (pancreatic carcinoma, CRL-1469) and U-87 MG (glioblastoma, HTB-14) cells. Details about growth conditions, cell harvesting and counting are available in ESI Sections SM12–SM14. ^† The cancer killing profiles of tested compounds were evaluated colorimetrically using the Cell Titer Non-Radioactive Cell Proliferation Assay Kit® (Promega, USA) based on the reduction of a yellow tetrazole, 3-(4,5-Dimethylthiazol-2-yl)-2, 5-diphenyl tetrazolium bromide (MTT), to a purple formazan, a process that takes place in the mitochondria of viable cells (details are in ESI Sections SM12–SM14 ^†).[98,99]
As SH-SY5Y cells highly express ATP binding cassette subfamily B member 1 (ABCB1, MDR1, normalized expression, NX: 36.8%),[100] cell resistance were reversed using verapamil (10 μM), which was added with each hit, and incubated with cells for 72 hours for subsequent MTT viability assay.[101,102] Finally, MTT cell proliferation assay results were analysed using GraphPad Prism 8.0 (GraphPad Software, Inc). […] Measurements were repeated in triplicates.
• MTT Cell Proliferation Assay
Inhibitory effect of the hits on SH-SY5Y cells were evaluated by a colorimetric method of CellTiter Non-Radioactive Cell Proliferation Assay Kit® (Promega, USA), based on the reduction of a yellow tetrazole, 3-(4,5-Dimethylthiazol-2-yl)-2, 5-diphenyl tetrazolium bromide (MTT), to a purple formazan, a process that take place in the mitochondria of viable cells.
Briefly, the cells were seeded onto 96-well plates (Greiner, Germany) at a concentration of 2×10^4 cells/well and incubated for 24 hours through which cells are attached to the walls of the wells.
Subsequently, hits under concern were screened on 50 µM and 10 µM concentrations (100 μL/ well). Each concentration was added in triplicates, and every plate contained a control of cells in plain medium. The cells were then incubated at 37 °C for 72 hours. After incubation, the media were aspirated from the wells and replaced by fresh media (100 μL/ well), and 15 µl MTT dye solution. The plates were incubated at 37 °C for four hours, and then 50 μL of solublization/stop solution was added to each well. Optical density (OD) at 560 nm wavelength was recorded one hour later using a 96-well plate reader (GloMax, Promega).
• Reversal of SH-SY5Y resistance by verapamil
As SH-SY5Y cells are highly expressing ATP binding cassette subfamily B member 1 (ABCB1, MDR1) (Normalized expression, NX: 36.8%) 100, cell resistance were reversed using 10 µM concentration of verapamil added with each hit and incubated with cells for 72 hours for subsequent MTT viability assay 101,102.

| Compound | Hill Slope |
| --- | --- |
| N=C(N)c1ccc(OCCCCCCOc2ccc(C(=N)N)cc2)cc1 [Hit 288] | 0.28 |
| O=C(NCCCCCCCCCCNC(=O)Nc1cccc(C2=NCC(O)CN2)c1)Nc1cccc(C2=NCC(O)CN2)c1 (stereo not drawn) [Hit 286] | 0.38 |
| N=C(N)c1ccc(OCCCCCCOc2ccc(C(=N)N)cc2I)cc1 [Hit 304] | 0.39 |
| O=C(NCCCCCCCCCCNC(=O)Nc1cccc(C2=NCCN2)c1)Nc1cccc(C2=NCCN2)c1 [Hit 285] | 0.32 |
| CCCCOCCCNCC(=O)Nc1ccc(S(=O)(=O)c2ccc(NC(=O)CNCCCOCCCC)cc2)cc1 [Hit 287] | 0.64 |

same assay, conditions: SH-SY5Y dose-response, without verapamil

| Compound | Hill Slope |
| --- | --- |
| COc1cccc2c1C(=O)c1c(O)c3c(c(O)c1C2=O)CC(O)(C(C)=NNC(=O)CO)CC3OC1CC(N)C(O)C(C)O1 (stereo not drawn) [Hit 298] | 0.74 |
| COc1cccc2c1C(=O)c1c(O)c3c(c(O)c1C2=O)C[C@@](O)(C(=O)CO)C[C@@H]3O[C@H]1C[C@H](N)[C@H](O)[C@H](C)O1 [Doxorubicin, reference compound] | 1.09 |

system: normal human dermal fibroblasts (HDF); assay: cytotoxicity against normal human dermal fibroblasts; format: cell-based; conditions: not given
Text: However, testing against HDF is aimed at evaluating the selective cytotoxicities of hits.

| Compound | HS (hill Slope) HDF |
| --- | --- |
| N=C(N)c1ccc(OCCCCCCOc2ccc(C(=N)N)cc2I)cc1 [Cpd 304] | 2.23 |
| COc1cccc2c1C(=O)c1c(O)c3c(c(O)c1C2=O)CC(O)(C(C)=NNC(=O)CO)CC3OC1CC(N)C(O)C(C)O1 (stereo not drawn) [Cpd 298] | 0.88 |
